Experimental data reported in patent US9997714B2, “Hole transport material” (MERCK PATENT GMBH, priority 2013, dated 2018).

Test: Current-voltage characteristics of solid state dye-sensitized solar cell with the HTM
Conditions: sDSSC, Z907 dye, AM 1.5 G; for FF / PCE / VOC: 100 mW cm^−2; for Jsc: 100 mW cm^−2, active area 0.16 cm^2

Row | Compound | FF | PCE [%] | VOC [V] | Jsc [mA cm^−2]
1 | COc1ccc(N(c2ccc(OC)c(C)c2)c2ccc3c(c2)C2(c4cc(N(c5ccc(OC)c(C)c5)c5ccc(OC)c(C)c5)ccc4-3)c3cc(N(c4ccc(OC)c(C)c4)c4ccc(OC)c(C)c4)ccc3-c3ccc(N(c4ccc(OC)c(C)c4)c4ccc(OC)c(C)c4)cc32)cc1C [Example 1, 2,2′,7,7′-tetrakis-(N,N′-di-4-methoxy-3-methylphenylamine)-9,9′-spirobifluorene] | 0.669 | 1.43 | 0.787 | 2.74
2 | COc1ccc(N(c2ccc(OC)cc2)c2ccc3c(c2)C2(c4cc(N(c5ccc(OC)cc5)c5ccc(OC)cc5)ccc4-3)c3cc(N(c4ccc(OC)cc4)c4ccc(OC)cc4)ccc3-c3ccc(N(c4ccc(OC)cc4)c4ccc(OC)cc4)cc32)cc1 [Example 2, 2,2′,7,7′-tetrakis-(N,N′-di-4-methoxyphenylamine)-9,9′-spirobifluorene] | 0.532 | 1.45 | 0.744 | 3.67
3 | COc1c(C)cc(N(c2cc(C)c(OC)c(C)c2)c2ccc3c(c2)C2(c4cc(N(c5cc(C)c(OC)c(C)c5)c5cc(C)c(OC)c(C)c5)ccc4-3)c3cc(N(c4cc(C)c(OC)c(C)c4)c4cc(C)c(OC)c(C)c4)ccc3-c3ccc(N(c4cc(C)c(OC)c(C)c4)c4cc(C)c(OC)c(C)c4)cc32)cc1C [Example 3] | 0.493 | 0.69 | 0.734 | 1.92
